The list shows a part of the results.
Key:
Assay in all cases: log2 fold change, soluble protein after heating vs DMSO (PISA); higher = thermal stabilisation; K562 cells, 10 uM, 30 min; active = over 0.2 and 3.5 SD of the protein, either way, in both replicates (recomputed)
[1] = compound: COc1cc(Nc2ncc3c(n2)-c2ccc(Cl)cc2C(c2c(F)cccc2OC)=NC3)ccc1C(=O)O [alisertib]
Summary of the method: (§1)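 K562 cells (2×10^6 cells/mL) were treated with 10 μM compound for 30 min, and aliquots were heated for 3 min over 48°C-58°C. Pooled aliquots were extracted in PBS with 0.5% NP-40 at 4°C, and the supernatant after 21,000xg for 90 min was measured by TMTpro 16plex LC-MS/MS with channel sums equalised. Reported thermal stability, relative to control samples and from duplicates, is a log2 fold change.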

Protein sequences, listed by entry. Tags and fused reporters are not part of them. Lines headed by an entry give the natural chain unless they say otherwise; changes in a name come on top.
UniProt Q9NZD4: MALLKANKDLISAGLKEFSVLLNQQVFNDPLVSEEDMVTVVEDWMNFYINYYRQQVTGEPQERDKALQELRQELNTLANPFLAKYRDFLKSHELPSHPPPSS
UniProt P49419: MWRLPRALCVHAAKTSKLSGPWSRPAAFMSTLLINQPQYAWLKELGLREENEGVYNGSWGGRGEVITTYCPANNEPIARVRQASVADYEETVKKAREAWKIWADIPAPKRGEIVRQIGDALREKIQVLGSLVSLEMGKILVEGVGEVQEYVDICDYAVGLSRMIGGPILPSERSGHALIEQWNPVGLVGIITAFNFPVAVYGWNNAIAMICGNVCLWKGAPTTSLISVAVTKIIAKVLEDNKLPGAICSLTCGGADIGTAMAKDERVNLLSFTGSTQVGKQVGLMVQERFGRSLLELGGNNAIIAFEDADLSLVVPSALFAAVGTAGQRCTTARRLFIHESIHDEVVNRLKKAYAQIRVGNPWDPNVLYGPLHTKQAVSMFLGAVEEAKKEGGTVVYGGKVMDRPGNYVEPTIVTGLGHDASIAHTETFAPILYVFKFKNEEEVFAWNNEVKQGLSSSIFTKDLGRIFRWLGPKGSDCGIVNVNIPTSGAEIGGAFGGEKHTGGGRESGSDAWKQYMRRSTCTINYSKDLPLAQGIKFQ
UniProt Q8N302: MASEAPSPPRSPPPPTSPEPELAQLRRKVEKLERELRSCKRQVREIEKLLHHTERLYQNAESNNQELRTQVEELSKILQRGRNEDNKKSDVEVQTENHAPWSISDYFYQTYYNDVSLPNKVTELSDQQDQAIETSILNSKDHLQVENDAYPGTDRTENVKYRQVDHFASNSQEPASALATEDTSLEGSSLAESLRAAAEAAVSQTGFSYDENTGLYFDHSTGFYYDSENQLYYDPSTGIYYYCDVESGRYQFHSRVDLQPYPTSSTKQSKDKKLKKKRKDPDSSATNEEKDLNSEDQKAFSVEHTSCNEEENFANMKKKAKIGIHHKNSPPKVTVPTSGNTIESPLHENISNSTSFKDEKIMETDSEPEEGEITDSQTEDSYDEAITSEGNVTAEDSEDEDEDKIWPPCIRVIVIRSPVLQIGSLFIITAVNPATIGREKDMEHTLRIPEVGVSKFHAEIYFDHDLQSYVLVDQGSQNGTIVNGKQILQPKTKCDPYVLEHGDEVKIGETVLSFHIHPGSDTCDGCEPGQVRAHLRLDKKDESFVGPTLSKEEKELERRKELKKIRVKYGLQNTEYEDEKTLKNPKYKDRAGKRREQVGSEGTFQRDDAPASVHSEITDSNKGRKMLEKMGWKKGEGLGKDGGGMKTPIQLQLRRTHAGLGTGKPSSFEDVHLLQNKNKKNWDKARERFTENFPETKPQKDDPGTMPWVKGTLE
UniProt O75342: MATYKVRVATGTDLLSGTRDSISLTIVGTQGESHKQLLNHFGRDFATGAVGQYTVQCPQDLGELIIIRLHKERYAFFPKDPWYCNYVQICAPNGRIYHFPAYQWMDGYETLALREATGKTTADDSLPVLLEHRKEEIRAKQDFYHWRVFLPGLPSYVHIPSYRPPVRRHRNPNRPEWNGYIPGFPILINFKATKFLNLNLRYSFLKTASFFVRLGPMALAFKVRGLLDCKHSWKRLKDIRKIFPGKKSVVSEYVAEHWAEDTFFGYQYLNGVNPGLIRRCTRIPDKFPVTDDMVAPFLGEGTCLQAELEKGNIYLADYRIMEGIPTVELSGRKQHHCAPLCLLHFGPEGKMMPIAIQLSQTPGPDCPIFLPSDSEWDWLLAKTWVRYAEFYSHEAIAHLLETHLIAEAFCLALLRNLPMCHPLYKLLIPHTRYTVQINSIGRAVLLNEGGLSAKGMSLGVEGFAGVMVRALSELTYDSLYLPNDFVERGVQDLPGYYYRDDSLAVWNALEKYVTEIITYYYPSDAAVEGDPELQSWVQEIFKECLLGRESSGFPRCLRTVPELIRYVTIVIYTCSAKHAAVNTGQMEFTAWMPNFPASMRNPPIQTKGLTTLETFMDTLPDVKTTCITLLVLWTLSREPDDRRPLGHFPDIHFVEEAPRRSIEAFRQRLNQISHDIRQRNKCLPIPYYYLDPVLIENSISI
UniProt Q9C0C7: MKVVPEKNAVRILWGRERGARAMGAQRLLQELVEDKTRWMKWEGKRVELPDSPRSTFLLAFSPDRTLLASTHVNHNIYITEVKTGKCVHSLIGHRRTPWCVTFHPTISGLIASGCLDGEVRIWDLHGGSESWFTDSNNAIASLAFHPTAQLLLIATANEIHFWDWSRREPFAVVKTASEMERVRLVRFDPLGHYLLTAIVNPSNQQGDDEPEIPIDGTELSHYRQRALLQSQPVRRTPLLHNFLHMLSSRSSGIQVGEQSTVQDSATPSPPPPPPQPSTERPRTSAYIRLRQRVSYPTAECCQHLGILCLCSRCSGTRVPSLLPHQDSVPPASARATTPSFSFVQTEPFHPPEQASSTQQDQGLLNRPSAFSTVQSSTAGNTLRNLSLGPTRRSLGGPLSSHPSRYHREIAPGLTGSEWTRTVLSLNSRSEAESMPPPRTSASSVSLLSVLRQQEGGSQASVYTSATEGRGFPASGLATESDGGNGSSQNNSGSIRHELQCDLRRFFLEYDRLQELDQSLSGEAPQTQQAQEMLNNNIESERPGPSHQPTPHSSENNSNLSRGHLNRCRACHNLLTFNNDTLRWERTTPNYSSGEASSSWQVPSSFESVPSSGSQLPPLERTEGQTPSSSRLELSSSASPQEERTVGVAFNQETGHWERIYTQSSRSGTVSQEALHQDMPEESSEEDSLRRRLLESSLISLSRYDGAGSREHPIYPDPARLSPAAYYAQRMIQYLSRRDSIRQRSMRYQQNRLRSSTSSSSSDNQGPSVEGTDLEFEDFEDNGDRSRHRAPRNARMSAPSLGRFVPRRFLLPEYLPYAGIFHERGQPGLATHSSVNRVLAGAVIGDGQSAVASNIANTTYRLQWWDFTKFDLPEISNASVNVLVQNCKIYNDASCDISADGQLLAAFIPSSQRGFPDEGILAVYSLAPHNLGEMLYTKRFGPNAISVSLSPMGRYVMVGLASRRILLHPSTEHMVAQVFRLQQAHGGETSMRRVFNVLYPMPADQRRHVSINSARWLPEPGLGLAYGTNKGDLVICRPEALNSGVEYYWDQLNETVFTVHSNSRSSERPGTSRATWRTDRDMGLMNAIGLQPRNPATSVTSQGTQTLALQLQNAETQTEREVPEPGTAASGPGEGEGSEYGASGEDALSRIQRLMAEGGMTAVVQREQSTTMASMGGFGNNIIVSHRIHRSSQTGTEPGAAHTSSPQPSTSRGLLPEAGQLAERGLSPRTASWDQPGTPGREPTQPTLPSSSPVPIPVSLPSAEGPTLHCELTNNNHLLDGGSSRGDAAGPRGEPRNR
UniProt O94910: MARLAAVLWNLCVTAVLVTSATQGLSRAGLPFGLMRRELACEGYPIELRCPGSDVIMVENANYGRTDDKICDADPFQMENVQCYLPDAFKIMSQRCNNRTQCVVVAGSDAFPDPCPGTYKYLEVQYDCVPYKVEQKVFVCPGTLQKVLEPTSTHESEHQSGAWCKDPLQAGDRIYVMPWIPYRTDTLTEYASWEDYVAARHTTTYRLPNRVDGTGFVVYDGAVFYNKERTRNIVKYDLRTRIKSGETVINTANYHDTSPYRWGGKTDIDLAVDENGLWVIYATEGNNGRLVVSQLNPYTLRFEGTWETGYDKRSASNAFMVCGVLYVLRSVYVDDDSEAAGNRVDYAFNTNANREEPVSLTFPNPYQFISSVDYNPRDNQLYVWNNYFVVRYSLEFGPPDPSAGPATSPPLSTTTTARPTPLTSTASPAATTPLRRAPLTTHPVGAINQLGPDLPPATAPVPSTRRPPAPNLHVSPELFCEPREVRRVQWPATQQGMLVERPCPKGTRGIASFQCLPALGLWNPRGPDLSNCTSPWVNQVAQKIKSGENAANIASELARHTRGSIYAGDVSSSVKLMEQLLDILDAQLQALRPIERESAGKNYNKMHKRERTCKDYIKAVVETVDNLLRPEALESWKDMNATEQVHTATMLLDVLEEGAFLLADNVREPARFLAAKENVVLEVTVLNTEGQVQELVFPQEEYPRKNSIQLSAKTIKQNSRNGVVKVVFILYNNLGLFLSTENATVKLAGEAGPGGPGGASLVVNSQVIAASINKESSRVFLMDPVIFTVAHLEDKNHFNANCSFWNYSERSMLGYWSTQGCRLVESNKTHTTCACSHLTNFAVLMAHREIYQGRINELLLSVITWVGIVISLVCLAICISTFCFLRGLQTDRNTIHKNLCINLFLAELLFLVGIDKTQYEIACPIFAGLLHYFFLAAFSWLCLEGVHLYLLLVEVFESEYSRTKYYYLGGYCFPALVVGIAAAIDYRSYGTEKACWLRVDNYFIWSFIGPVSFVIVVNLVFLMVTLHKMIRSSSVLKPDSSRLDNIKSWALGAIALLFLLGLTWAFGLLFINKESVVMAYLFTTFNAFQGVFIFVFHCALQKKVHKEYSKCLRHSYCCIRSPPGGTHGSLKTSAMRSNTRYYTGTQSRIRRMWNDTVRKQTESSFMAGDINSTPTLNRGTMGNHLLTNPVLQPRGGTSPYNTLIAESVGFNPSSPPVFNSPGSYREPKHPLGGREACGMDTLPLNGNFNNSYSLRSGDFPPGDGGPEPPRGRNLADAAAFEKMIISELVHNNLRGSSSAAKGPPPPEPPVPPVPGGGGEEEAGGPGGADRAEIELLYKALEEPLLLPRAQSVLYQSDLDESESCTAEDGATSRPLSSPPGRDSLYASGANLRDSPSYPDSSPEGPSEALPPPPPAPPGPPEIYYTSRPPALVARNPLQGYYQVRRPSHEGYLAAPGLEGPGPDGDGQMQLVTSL
UniProt P55008: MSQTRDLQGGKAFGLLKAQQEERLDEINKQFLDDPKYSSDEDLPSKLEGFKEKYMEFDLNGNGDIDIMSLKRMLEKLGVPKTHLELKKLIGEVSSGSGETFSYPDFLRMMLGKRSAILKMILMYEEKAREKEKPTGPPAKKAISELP
UniProt P51857: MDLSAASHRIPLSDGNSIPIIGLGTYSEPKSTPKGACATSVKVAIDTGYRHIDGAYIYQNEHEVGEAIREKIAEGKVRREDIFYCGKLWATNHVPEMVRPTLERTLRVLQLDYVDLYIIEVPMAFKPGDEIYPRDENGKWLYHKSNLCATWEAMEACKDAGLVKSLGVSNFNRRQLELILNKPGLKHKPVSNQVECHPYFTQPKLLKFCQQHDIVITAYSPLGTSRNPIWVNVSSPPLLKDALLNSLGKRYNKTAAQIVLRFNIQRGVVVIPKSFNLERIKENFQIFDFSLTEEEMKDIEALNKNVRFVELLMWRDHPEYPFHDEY
UniProt Q9NP73: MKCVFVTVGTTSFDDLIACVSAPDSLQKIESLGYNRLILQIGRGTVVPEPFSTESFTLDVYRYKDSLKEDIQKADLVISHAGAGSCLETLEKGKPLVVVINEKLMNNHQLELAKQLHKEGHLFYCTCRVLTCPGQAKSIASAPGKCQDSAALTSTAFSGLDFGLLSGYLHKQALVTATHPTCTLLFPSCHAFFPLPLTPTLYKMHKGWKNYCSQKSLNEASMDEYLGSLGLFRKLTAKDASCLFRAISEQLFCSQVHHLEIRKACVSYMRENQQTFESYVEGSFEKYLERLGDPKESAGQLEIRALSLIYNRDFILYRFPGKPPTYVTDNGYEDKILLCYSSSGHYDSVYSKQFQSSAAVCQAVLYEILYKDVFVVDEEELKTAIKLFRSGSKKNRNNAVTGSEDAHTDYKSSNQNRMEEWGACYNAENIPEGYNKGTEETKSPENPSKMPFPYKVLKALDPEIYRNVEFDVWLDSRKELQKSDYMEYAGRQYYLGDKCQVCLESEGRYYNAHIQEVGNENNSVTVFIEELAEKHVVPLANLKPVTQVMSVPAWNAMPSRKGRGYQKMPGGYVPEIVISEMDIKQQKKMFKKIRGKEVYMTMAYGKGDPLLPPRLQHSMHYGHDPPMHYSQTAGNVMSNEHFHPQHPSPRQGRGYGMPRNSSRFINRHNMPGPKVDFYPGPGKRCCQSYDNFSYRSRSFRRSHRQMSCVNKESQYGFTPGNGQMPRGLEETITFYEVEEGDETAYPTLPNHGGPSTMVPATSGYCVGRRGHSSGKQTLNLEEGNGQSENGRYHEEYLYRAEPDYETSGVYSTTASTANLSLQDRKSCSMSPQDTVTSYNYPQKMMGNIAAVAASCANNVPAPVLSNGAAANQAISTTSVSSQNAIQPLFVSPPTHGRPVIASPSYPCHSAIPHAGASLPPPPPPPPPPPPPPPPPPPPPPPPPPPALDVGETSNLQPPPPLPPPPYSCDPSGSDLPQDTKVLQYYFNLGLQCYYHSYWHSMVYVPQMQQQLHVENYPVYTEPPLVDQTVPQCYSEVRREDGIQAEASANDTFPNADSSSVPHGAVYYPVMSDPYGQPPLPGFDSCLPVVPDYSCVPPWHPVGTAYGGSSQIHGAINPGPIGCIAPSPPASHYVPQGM
UniProt Q9BQI0: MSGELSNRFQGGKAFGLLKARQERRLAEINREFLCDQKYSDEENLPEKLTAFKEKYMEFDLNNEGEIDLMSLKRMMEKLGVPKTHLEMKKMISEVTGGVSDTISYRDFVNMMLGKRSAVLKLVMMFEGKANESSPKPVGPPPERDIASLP

[2] = compound: COc1cc2ncnc(Nc3ccc(F)c(Cl)c3)c2cc1OCCCN1CCOCC1 [gefitinib]
Summary of the method: as §1

[3] = compound: COc1cccc2cc(-c3nc([C@H]4CC[C@H](C(=O)O)CC4)n4ncnc(N)c34)[nH]c12
Summary of the method: as §1

[4] = compound: Cc1ccc(C(=O)N(CCCN)[C@@H](c2nc3cc(Cl)ccc3c(=O)n2Cc2ccccc2)C(C)C)cc1 [ispinesib]
Summary of the method: as §1

[5] = compound: CON(C)C(=O)N1N=C(c2cc(F)ccc2F)S[C@@]1(CCCN)c1ccccc1 [filanesib]
Summary of the method: as §1

[6] = compound: CS(=O)(=O)N1CCN(Cc2cc3nc(-c4cccc5[nH]ncc45)nc(N4CCOCC4)c3s2)CC1 [pictilisib]
Summary of the method: as §1

[7] = compound: CS(=O)(=O)c1ccc(-c2cnc(N)c(C(=O)Nc3ccccc3)n2)cc1
Summary of the method: as §1

[8] = compound: C[C@@H]1COCCN1C2=NC(=NC(=C2)C3(CC3)S(=O)(=O)C)C4=C5C=CNC5=CC=C4
Summary of the method: as §1

[9] = compound: Cc1cc(Nc2cc(CN3CCOCC3)c3nc(C)c(Cc4ccc(Cl)cc4F)n3n2)n[nH]1 [gandotinib]
Summary of the method: as §1

[10] = compound: COc1cc(C(=O)O)ccc1NC(=O)[C@@H]1N[C@@H](CC(C)(C)C)[C@](C#N)(c2ccc(Cl)cc2F)[C@H]1c1cccc(Cl)c1F [idasanutlin]
Summary of the method: as §1

[11] = compound: COc1cc2nc(-c3cc(F)ccc3O)nc(N[C@@H]3CNC[C@H]3C(C)(C)O)c2cc1OC
Summary of the method: as §1

[12] = compound: CS(=O)(=O)CCNCc1ccc(-c2ccc3ncnc(Nc4ccc(OCc5cccc(F)c5)c(Cl)c4)c3c2)o1 [lapatinib]
Summary of the method: as §1

[13] = compound: C[C@H](Nc1ncnc2nc[nH]c12)c1cc2cccc(Cl)c2c(=O)n1-c1ccccc1 [duvelisib]
Summary of the method: as §1

[14] = compound: Cc1cc(Nc2cc(N3CCN(C)CC3)nc(Sc3ccc(NC(=O)C4CC4)cc3)n2)n[nH]1 [tozasertib]
Summary of the method: as §1

[15] = compound: Cc1cc(SCc2sc(-c3ccc(C(F)(F)F)cc3)nc2C)ccc1OCC(=O)O
Summary of the method: as §1

[16] = compound: CO[C@H]1C[C@@H]2CC[C@@H](C)[C@@](O)(O2)C(=O)C(=O)N2CCCC[C@H]2C(=O)O[C@H]([C@H](C)C[C@@H]2CC[C@H](n3cnnn3)[C@H](OC)C2)CC(=O)[C@H](C)/C=C(\C)[C@@H](O)[C@@H](OC)C(=O)[C@H](C)C[C@H](C)/C=C/C=C/C=C/1C [zotarolimus]
Summary of the method: as §1

[17] = compound: C[C@H](C1=CC=C(C=C1)C(=O)NC2=C3C=CNC3=NC=C2)N
Summary of the method: as §1

Measured: log2 fold change

AHSP (UniProt Q9NZD4)
inactive: [1] -0.145 | [2] 0.095 | [3] 0.002 | [4] 0.301

ALDH7A1 (UniProt P49419)
inactive: [5] -0.003 | [1] 0.827 | [3] -0.23 | [6] -0.016 | [7] -0.093 | [8] -0.079 | [9] 0.033

ALDOA (UniProt P04075)
inactive: [5] 0.119 | [10] -0.153 | [1] -0.033 | [11] 0.02 | [2] -0.079 | [3] -0.005 | [12] -0.024 | [6] 0.192 | [7] 0.086 | [13] -0.033 | [9] -0.005 | [14] -0.102 | [15] -0.016 | [4] -0.202

AGGF1 (UniProt Q8N302)
inactive: [1] -0.019 | [3] -0.022

ADD2 isoform 9 (UniProt P35612)
inactive: [5] 0.043 | [1] -0.072 | [11] -0.053 | [3] 0.282 | [12] 0.04 | [7] -0.067 | [4] 0.04

ALOX12B (UniProt O75342)
inactive: [5] 0.059 | [10] 0.254 | [1] 1.21 | [11] 0.309 | [3] 0.145 | [12] -0.137 | [7] -0.149 | [13] -0.388 | [14] -0.084 | [15] -0.422 | [4] 0.347

ADCY7 (UniProt P51828)
inactive: [16] -0.034 | [10] -0.348 | [2] 0.14 | [6] 0.081 | [8] -0.041 | [17] -0.023 | [13] -0.015 | [9] -0.437 | [15] 0.078 | [4] 0.008

AGA (UniProt P20933)
inactive: [16] -0.1 | [1] -0.102 | [11] -0.103 | [3] -0.05 | [12] 0.039 | [6] -0.004 | [17] 0.118 | [9] -0.041

AFMID isoform 2 (UniProt Q63HM1)
inactive: [1] 0.015 | [3] 0.078

AFF4 (UniProt Q9UHB7)
inactive: [5] 0.251 | [10] 0.045 | [1] 0.267 | [3] 0.301 | [6] -0.22 | [7] 0.028 | [8] -0.197 | [13] -0.034 | [9] -0.193 | [15] 0.122

AMBRA1 isoform 5 (UniProt Q9C0C7)
inactive: [16] -0.008 | [10] -0.111 | [1] 0.036 | [3] -0.27 | [8] 0.083 | [17] -0.08 | [13] 0.137 | [14] -0.024 | [15] 0.125

ALDH1L1 isoform 3 (UniProt O75891)
inactive: [5] -0.137 | [7] -0.037

ADPRM (UniProt Q3LIE5)
inactive: [5] -0.074 | [7] -0.083

AKR1C1 (UniProt Q04828)
inactive: [1] -0.01 | [3] -0.31

AMZ2 (UniProt Q86W34)
inactive: [5] -0.007 | [1] -0.042 | [11] 0.024 | [3] 0.328 | [12] -0.059 | [7] 0.041 | [8] 0.054 | [13] -0.204 | [15] 0.299 | [4] -0.168

AIG1 (UniProt Q9NVV5)
inactive: [10] 0.154 | [6] -0.092 | [13] 0.198 | [9] 0.065 | [14] -0.146 | [15] -0.287

ALOX5 (UniProt P09917)
inactive: [13] -0.042 | [14] -0.08 | [15] -0.034

ALS2 (UniProt Q96Q42)
inactive: [11] -0.02 | [12] -0.066 | [8] 0.045 | [14] -0.073 | [4] -0.289

ALDOB (UniProt P05062)
inactive: [5] -0.144 | [7] 0.01 | [8] -0.165

ADGRL1 (UniProt O94910)
inactive: [6] 0.019 | [9] -0.211

AIF1 (UniProt P55008)
inactive: [5] 0.038 | [10] 0.052 | [11] 0.083 | [12] 0.053 | [7] 0.008 | [8] 0.11 | [4] -0.317

AKR1D1 (UniProt P51857)
inactive: [16] 0.146 | [10] -0.248 | [11] 0.009 | [12] 0.069 | [6] 0.162 | [17] 0.157 | [13] 0.031 | [9] 0.134 | [14] -0.321 | [15] 0.029

ALG13 isoform 2 (UniProt Q9NP73)
inactive: [10] 0.029 | [1] 0.016 | [11] -0.063 | [2] -0.005 | [3] 0.029 | [12] -0.017 | [6] -0.069 | [8] 0.077 | [13] 0.052 | [9] -0.128 | [15] 0.068

ALAS1 (UniProt P13196)
inactive: [5] -0.073 | [10] -0.151 | [1] 0.027 | [11] 0.077 | [3] -0.039 | [12] 0.086 | [6] 0.396 | [7] 0.116 | [8] 0.111 | [9] -0.074

AIF1L isoform 2 (UniProt Q9BQI0)
inactive: [16] -0.361 | [10] 0.038 | [1] -0.038 | [11] 0.038 | [2] 0.178 | [3] -0.12 | [12] 0.079 | [6] 0.105 | [8] -0.036 | [17] -0.164 | [13] -0.019 | [9] 0.02 | [15] 0.264 | [4] 0.02

AKTIP isoform 2 (UniProt Q9H8T0)
inactive: [5] -0.018 | [1] 0.185 | [11] 0.033 | [3] -0.107 | [12] -0.015 | [7] -0.052 | [8] 0.003

ALKBH7 (UniProt Q9BT30)
inactive: [16] -0.091 | [6] 0.071 | [17] 0.349 | [9] -0.01 | [4] -0.048

Quoted at random: two entries already listed, in no set order.
ALKBH7 (UniProt Q9BT30)
inactive: [16] -0.091 | [6] 0.071 | [17] 0.349 | [9] -0.01 | [4] -0.048

ALAS1 (UniProt P13196)
inactive: [5] -0.073 | [10] -0.151 | [1] 0.027 | [11] 0.077 | [3] -0.039 | [12] 0.086 | [6] 0.396 | [7] 0.116 | [8] 0.111 | [9] -0.074

(cont.)

ANAPC13 (UniProt Q9BS18)
inactive: [8] 0.069
